# Results as given in PubChem BioAssay AID445 (National Center for Advancing Translational Sciences (NCATS), 2006).
# The list shows a part of the results. Shown are side measurements of this screen, not its main read-out; they come without a call. The list favours compounds with an active or inconclusive main result. Words in brackets tell the shape of the fitted curve; partial curves, single points and poor fits give uncertain potencies.
# Assay: IkB Signaling
# Conditions: ABC-DLBCL IkBa-CBG/CBR dual luciferase ratio (green luciferase fused to IkBa over red control in OCI-Ly3 lymphoma cells), 4 h; measured here: control luc red channel unless noted
# In short: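 Curves were fitted separately to fusion (green), unfused (red) and ratio luminescence, then classed by r2, magnitude and activity. Cells: OCI-Ly3, 4 h compound plus doxycycline at 37C; 10 uM MG-132 defined full response.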
row,Structure (SMILES),AC50
1,CCCN(CCC)C(=O)Cn1c(=O)n(-c2cccc(C)c2)c(=O)c2c1c1cc(OC)ccc1n2C,"3.98 µM [falling, partial curve]"
2,CCCCOc1ccc(C(C)NC(=O)CN2C(=O)CSc3ccc(S(=O)(=O)N4CCOCC4)cc32)cc1 (centres undefined),"39.8 µM [falling, single point]"
3,COc1cccc(-c2cc(C(F)(F)F)nc(NCCc3ccc(OC)c(OC)c3)n2)c1,"10 µM [falling, partial curve]"
4,O=C(CN1CCCN(Cc2cccc(Cl)c2)S1(=O)=O)Nc1ccc2c(c1)OCCO2,"20 µM [falling, partial curve]"
5,COc1ccccc1CN1CCC(CNC(=O)c2cnn(-c3ccccc3Cl)c2C2CCN(C(=O)OC(C)(C)C)CC2)CC1,"25.1 µM [falling, single point]"
6,CCC(=O)Nc1ccc(Cl)c(-c2nc3ccccc3[nH]2)c1,"15.8 µM [falling, single point]"
7,Cc1cccc(NC(=O)c2ccc(-n3c(C)nnc3C)cc2)c1,"20 µM [rising, single point] [measured here: IkB-luc green channel]"
8,Cc1ccc(-n2ncc3c(N4CCCCCC4)ncnc32)cc1Cl,"1.58 µM [falling, partial curve]"
9,COc1ccccc1CNC(=O)CCc1c(C)nc2cc(-c3ccc(Cl)cc3)nn2c1C,"0.398 µM [falling, full curve]"
10,Cc1cc2oc(=O)c(CC(=O)NCCc3ccccc3F)c(C)c2c2occ(C(C)(C)C)c12,"20 µM [falling, partial curve]"
11,CC(=O)Nc1cc(C(=O)NCc2ccc(F)cc2)ccc1Sc1ccc(F)cc1,"12.6 µM [falling, partial curve, poor fit]"
12,CCCCN(C(=O)C1CCC(CNS(=O)(=O)c2cccc3nsnc23)CC1)c1ccccc1 (centres undefined),"25.1 µM [falling, partial curve]"
13,COc1ccc(CC(=O)NCC(c2cccs2)S(=O)(=O)c2ccc(F)c(C)c2)cc1 (centres undefined),"25.1 µM [falling, single point]"
14,COc1ccccc1C(=O)N/C(=C\c1cn(S(=O)(=O)N(C)C)c2ccccc12)C(=O)NCCCn1ccnc1,"20 µM [falling, partial curve]"
15,CCc1ccc(CNC(=O)C2CCCN(c3nnc(C)c4c(C)n(-c5ccccc5)nc34)C2)cc1 (centres undefined),"12.6 µM [falling, partial curve]"
16,Cc1cc2n(n1)CCC(=O)N2Cc1ccc(C(=O)Nc2cc(Cl)ccc2C)cc1,"3.98 µM [falling, partial curve]"
17,COc1ccc(OC)c(NC(=O)C2CCCN(S(=O)(=O)c3ccc4c(c3)CCCC(=O)N4)C2)c1 (centres undefined),"5.01 µM [falling, single point]"
18,COc1ccccc1C(=O)Nc1ccc2nc(SCC(=O)N3CCCc4ccccc43)sc2c1,"0.2 µM [falling, full curve]"
19,COc1ccccc1NC(=O)C1=C(C)Nc2nc(SC)nn2C1c1ccccc1Cl (centres undefined),"25.1 µM [falling, partial curve]"
20,COc1cc(-c2nc(SCC(=O)Nc3ccc4c(c3)OCO4)c(-c3ccccc3)[nH]2)cc(OC)c1OC,"12.6 µM [falling, partial curve]"

# Reprinted from the entries so far (three entries):
row,Structure (SMILES),AC50
15,CCc1ccc(CNC(=O)C2CCCN(c3nnc(C)c4c(C)n(-c5ccccc5)nc34)C2)cc1 (centres undefined),"12.6 µM [falling, partial curve]"
16,Cc1cc2n(n1)CCC(=O)N2Cc1ccc(C(=O)Nc2cc(Cl)ccc2C)cc1,"3.98 µM [falling, partial curve]"
17,COc1ccc(OC)c(NC(=O)C2CCCN(S(=O)(=O)c3ccc4c(c3)CCCC(=O)N4)C2)c1 (centres undefined),"5.01 µM [falling, single point]"

# Later entries.

row,Structure (SMILES),AC50
1,COc1ccc(-c2nnc(C3CCN(S(=O)(=O)c4cccc(Cl)c4)CC3)o2)cc1,"15.8 µM [falling, single point]"
2,COc1ccc(-c2nnc(SCC(=O)N3CCC(C)CC3)o2)cc1,"39.8 µM [falling, single point]"
3,CN(CC(=O)Nc1ccc(Cl)cc1)S(=O)(=O)c1cccc2cccnc12,"12.6 µM [falling, partial curve]"
4,COc1ccc(NC(=O)N2CCn3c2nc2ccccc23)cc1,"10 µM [falling, partial curve]"
5,O=C(Nc1sc2c(c1C(=O)NCC1CCCO1)CCCC2)c1cccs1 (centres undefined),"12.6 µM [falling, partial curve]"
6,COc1ccc(OCCn2c(NC(=O)c3ccc(OC)cc3)nc3ccccc32)cc1,"7.94 µM [falling, partial curve]"
7,CC1CCN(CC[S-])CC1.O.O.[Cl][Pt],"1.58 µM [falling, partial curve]"
8,O=C1c2c(O)ccc([N+](=O)[O-])c2C(=O)c2c([N+](=O)[O-])ccc(O)c21,"2.51 µM [falling, full curve]"
9,O=S(=O)(c1ccc(F)cc1)N1CCC(Oc2cccc(C(F)(F)F)c2)CC1,"25.1 µM [falling, single point]"
10,COc1ccc(S(=O)(=O)N2Cc3ccccc3CC2C(=O)Nc2ccc(C)cc2)cc1OC (centres undefined),"39.8 µM [falling, single point]"
11,CCCC(c1nnnn1C(C)(C)CC)N(Cc1ccco1)Cc1cc2ccc(OC)cc2[nH]c1=O (centres undefined),"10 µM [falling, partial curve]"
12,Cc1c2cnn(-c3ccccc3)c(=O)c2c(C)n1C(C)C(=O)Nc1ccccc1C(F)(F)F (centres undefined),"10 µM [falling, partial curve]"
13,Cc1ccc(C)c(NC(c2ccccc2)c2nnc(-c3ccccc3F)o2)c1 (centres undefined),"12.6 µM [falling, partial curve]"
14,CCOC(=O)CC(NC(=O)Cn1nnc(-c2ccccc2Cl)n1)c1ccc(OC)cc1 (centres undefined),"31.6 µM [falling, single point]"
15,Clc1ccc(CCNc2nc3cc(Cl)c(Cl)cc3n3cnnc23)cc1,"20 µM [falling, single point]"
16,COC(=O)c1cc(NC(=O)c2oc(=O)c3ccccc3c2-c2ccccc2)cc(C(=O)OC)c1,"2 µM [rising, full curve]"
17,Cc1ccc(NC(=O)c2c(NC(=O)c3ccco3)sc3c2CCC(C(C)(C)C)C3)c(C)c1 (centres undefined),"3.16 µM [falling, partial curve]"
18,COc1cc(OC)c(NC(=O)c2nnn(Cc3ccc(C)cc3)c2N)cc1Cl,"31.6 µM [falling, single point]"
19,O=C(Cn1ncc2c3ccccc3n(Cc3ccc(Cl)cc3)c2c1=O)N1CCCCCC1,"15.8 µM [falling, partial curve]"
